PubChem BioAssay AID1259424, University of Nebraska Medical Center – 2018

Assay: 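Seek colon cancer survival genes behaving like KSR1, using a six-gene signature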 (primary screen)
Cells: human HCT116 colon cancer cells
Reagents: siRNA pool against human genes, 50 nM
Measurement: 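Six signature mRNAs by branched-DNA multiplex assay, scaled to two housekeeping genes and non-targeting median, log2; matched to mean KSR1 knockdown profile by Pearson correlation and euclidean distance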
Scale: mean correlation with KSR1 profile and KSR1 correlation: higher = expression change more like KSR1 knockdown; mean distance from KSR1 profile: higher = expression change less like KSR1 knockdown
Shown is a random part of about 14,000 reagents tested. 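Higher correlation or smaller distance means closer resemblance to KSR1 loss; control wells, including KSR1 knockdowns, recur on many plates.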 Not stated in the record: the time to read-out.

mean correlation with KSR1 profile	mean distance from KSR1 profile	KSR1 correlation, replicate 1	KSR1 correlation, replicate 2	KSR1 correlation, replicate 3	Gene
0.613	1.05	0.52	0.606	0.485	NRAS
0.185	1.74	0.577	0.292	-0.606	MAP3K21
-0.265	4.45	-0.312	-0.253	-0.116	RPL27
0.694	1.26	0.706	0.576	0.401	PAK5
0.0546	2.03	0.0974	-0.114	0.0777	FRS2
0.323	1.83	0.226	0.357	0.397	PDGFRA
-0.226	1.93	-0.442	-0.463	-0.0809	PTCRA
-0.154	4.38	-0.112	-0.134	-0.283	COL9A3
-0.143	1.95	-0.382	-0.119	-0.103	SASH1
0.28	2.03	0.407	-0.0216	0.038	CCL4
-0.224	2.18	0.0991	-0.0198	-0.676	POLR2F
-0.58	3.67	-0.602	-0.492	-0.495	SF3B2
-0.275	1.69	-0.293	-0.437	-0.0797	KCNA1
-0.954	3.88	-0.953	-0.874	-0.402	CTSO
0.256	1.27	0.164	0.0805	0.602	CLEC3A
-0.34	1.75	-0.347	-0.193	-0.353	ADH4
0.128	1.58	0.121	-0.096	0.427	TFEC
0.0297	1.6	0.115	-0.155	-0.118	FILIP1L
-0.357	3.36	-0.458	-0.262	-0.159	RPGRIP1
-0.0555	1.76	0.00662	0.0064	-0.141	SERPINI1
-0.48	3.13	-0.645	-0.437	-0.398	CA4
0.127	1.96	0.17	0.437	0.0442	ERCC8
-0.0723	1.59	-0.137	-0.452	-0.0342	TMEM242
-0.0559	3.12	-0.206	-0.0742	-0.082	CELA1
0.0817	2.61	0.43	0.213	0.0152	EMX1
0.0538	1.91	-0.0152	0.0831	0.411	FAM219B
-0.795	3.04	-0.703	-0.711	-0.792	MTCL1
0.402	1.69	0.126	0.118	0.325	FAM216A
-0.121	3.56	-0.191	-0.21	0.106	GOT2
0.561	1.09	0.0314	0.605	0.45	LILRB2
-0.013	2.32	0.0777	-0.0135	-0.238	TUBA1A
0.201	1.21	0.2	0.19	0.21	PON2
0.589	1.62	0.479	0.449	0.537	TSC22D4
-0.123	2.42	-0.155	-0.263	-0.254	ENPP1

Targets above whose target name begins with R or r (2):
mean correlation with KSR1 profile	mean distance from KSR1 profile	KSR1 correlation, replicate 1	KSR1 correlation, replicate 2	KSR1 correlation, replicate 3	Gene
-0.265	4.45	-0.312	-0.253	-0.116	RPL27
-0.357	3.36	-0.458	-0.262	-0.159	RPGRIP1
